Our source for the Ki values is article PMC3253719 (Anesthesia and Analgesia, 2010).

Chains of the proteins cited; added tags and fusions are not shown.
UniProt P20272, whole entry: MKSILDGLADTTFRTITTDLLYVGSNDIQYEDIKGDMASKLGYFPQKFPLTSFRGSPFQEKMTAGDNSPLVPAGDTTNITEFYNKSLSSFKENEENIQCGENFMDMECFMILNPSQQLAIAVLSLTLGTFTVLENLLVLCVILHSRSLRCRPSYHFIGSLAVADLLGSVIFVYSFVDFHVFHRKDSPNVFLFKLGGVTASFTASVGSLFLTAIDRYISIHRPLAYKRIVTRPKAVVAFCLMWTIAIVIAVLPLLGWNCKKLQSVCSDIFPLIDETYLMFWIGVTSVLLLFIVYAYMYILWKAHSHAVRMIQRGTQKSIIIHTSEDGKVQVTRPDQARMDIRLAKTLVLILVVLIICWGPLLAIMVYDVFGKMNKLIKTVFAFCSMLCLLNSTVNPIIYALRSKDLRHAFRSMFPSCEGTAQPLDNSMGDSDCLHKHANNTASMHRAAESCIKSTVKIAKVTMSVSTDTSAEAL

The Ki is the dissociation constant of the complex between target and ligand, obtained from inhibition or displacement.

In the assay the target is rat CB1 receptor (Rattus norvegicus, UniProt P20272). Description: Radioligand competitive binding assay, rat CB1.

Turning to `Cc1c(C(=O)NN2CCCCC2)nn(-c2ccc(Cl)cc2Cl)c1-c1ccc(I)cc1` [AM251, N-(piperidin-1-yl)-5-(4-iodophenyl)-1-(2,4-dichlorophenyl)-4-methyl-1H-pyrazole-3-carboxamide, reference compound], the affinity corresponds to a Ki of 0.58 ± 0.04 nM.
